Assay results from paper PMC8899535.
No constants are given. Whether binding was seen depends on the method and setting. Binding seen in cells or lysates may run through a third protein. A result given as binding can be weak or reduced; the word gives no strength.

Sequences of proteins named here, by UniProt entry; tags and fusion partners are left off. A change or cut given only in a name is not applied to a line headed by its entry.
UniProt B7EQT4: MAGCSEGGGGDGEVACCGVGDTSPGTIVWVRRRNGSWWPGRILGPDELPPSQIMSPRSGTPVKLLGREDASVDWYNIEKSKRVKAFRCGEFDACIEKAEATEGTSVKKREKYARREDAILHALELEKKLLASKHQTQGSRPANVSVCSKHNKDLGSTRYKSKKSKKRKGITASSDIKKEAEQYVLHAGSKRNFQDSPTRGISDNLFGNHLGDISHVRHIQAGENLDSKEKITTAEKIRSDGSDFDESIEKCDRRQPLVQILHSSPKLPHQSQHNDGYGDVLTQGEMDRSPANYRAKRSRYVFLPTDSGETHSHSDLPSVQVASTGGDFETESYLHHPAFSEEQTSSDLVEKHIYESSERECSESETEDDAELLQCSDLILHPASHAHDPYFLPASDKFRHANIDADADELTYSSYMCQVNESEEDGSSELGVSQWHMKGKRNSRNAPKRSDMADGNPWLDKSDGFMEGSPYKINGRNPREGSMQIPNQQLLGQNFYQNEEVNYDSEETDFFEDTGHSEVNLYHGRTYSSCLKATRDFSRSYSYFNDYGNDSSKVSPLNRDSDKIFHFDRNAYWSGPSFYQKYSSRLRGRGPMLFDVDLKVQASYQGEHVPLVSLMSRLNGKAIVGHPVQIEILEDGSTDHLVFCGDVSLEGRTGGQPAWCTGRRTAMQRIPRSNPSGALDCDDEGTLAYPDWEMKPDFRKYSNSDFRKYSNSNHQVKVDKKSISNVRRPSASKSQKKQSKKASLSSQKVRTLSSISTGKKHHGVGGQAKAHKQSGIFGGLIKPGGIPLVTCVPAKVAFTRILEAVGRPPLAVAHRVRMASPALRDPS
UniProt A0A0P0V419: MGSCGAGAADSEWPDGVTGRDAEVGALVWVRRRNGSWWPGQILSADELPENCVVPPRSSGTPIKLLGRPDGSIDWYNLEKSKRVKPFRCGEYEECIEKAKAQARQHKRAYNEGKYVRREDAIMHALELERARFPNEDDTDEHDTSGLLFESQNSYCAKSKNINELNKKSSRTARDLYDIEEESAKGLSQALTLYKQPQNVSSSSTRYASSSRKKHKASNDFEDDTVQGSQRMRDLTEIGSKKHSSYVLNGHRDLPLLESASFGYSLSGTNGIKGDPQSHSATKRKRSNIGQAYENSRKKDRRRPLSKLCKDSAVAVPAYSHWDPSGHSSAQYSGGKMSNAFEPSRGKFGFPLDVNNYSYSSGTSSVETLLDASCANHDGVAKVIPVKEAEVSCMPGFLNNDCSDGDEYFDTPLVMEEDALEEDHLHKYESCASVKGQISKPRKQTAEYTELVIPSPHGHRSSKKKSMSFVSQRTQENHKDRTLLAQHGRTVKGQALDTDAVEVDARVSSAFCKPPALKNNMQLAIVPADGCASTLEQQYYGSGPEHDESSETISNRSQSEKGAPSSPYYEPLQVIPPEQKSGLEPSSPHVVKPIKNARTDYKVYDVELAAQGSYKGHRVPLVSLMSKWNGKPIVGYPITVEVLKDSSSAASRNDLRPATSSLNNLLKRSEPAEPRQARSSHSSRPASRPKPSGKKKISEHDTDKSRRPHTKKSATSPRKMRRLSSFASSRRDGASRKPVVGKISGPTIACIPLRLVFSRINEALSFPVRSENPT

Target: T1, YC-OsTZF7 (rice (Oryza sativa, cultivar Nipponbare)) (UniProt Q65X92)
T1 sequence: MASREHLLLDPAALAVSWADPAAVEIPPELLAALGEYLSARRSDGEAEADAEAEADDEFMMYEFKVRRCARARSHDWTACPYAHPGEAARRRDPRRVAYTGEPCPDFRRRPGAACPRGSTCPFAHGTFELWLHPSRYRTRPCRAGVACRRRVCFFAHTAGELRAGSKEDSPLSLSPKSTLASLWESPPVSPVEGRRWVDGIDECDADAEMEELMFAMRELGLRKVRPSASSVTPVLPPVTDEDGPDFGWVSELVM
Assay: split reporter; BiFC with YN and YC fragments of YFP, transient expression in tobacco leaf epidermal cells, confocal microscopy

YN-OsPWWP1 (from UniProt B7EQT4) was tested, and the binding was “binds”.

YN-OsPWWP2 (rice) was tested, and the binding was “binds”.

For YN-OsPWWP3 (from UniProt A0A0P0V419), the binding was “binds”.
